Data as given in PubChem BioAssay AID504771 (Drosophila RNAi Screening Center, 2011).

Assay: 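Knock-downs that increase or decrease Htt-Q46 aggregates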 (follow-up of hits)
Cell system: Drosophila S2 cells with copper-inducible mutant huntingtin exon 1 (46 glutamines)-eGFP
Knock-down reagent: long dsRNA against Drosophila genes, 250 ng dsRNA per well
Time to read-out: 3 days of knock-down, then 2 days of copper induction before fixing
Treatment: copper sulfate at 400 µM to switch on Htt-Q46-eGFP expression
Measurement: 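Automated image analysis of GFP-tagged aggregates per well: number, size and intensity against plate mean and SD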
Active means: 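Primary candidate if any aggregate measure lay more than 2 SD from the plate mean; active only if it then passed checks for off-target effects, reproducibility, independent dsRNAs and a promoter counter-screen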
Meaning of the calls: active = confirmed modifier; inactive = primary candidate not confirmed
Only reagents picked out of a larger screen are listed. 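All genes were primary candidates; inactive means validation failed, not no effect; aggregate scores behind calls are not deposited.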 Entries without a mark were called inactive. A plus sign joins genes that one reagent is predicted to hit. No sequences are given here.

Odj (Oddjob) [DRSC16234]: aggregation phenotype = knock-down raises aggregates (active)
SCAP (SREBP cleavage activating protein) [DRSC04907]: aggregation phenotype = knock-down lowers aggregates
Tnpo (Transportin) [DRSC11309]: aggregation phenotype = knock-down lowers aggregates
Obp57e (Odorant-binding protein 57e) [DRSC05891]: aggregation phenotype = knock-down raises aggregates
Efa6 (Exchange factor for Arf 6) [DRSC15312]: aggregation phenotype = knock-down raises aggregates
CycT (Cyclin T) [DRSC11124]: aggregation phenotype = knock-down lowers aggregates
CycT (Cyclin T) [DRSC23304]: aggregation phenotype = knock-down lowers aggregates
sesB (stress-sensitive B) [DRSC20371]: aggregation phenotype = knock-down lowers aggregates (active)
alphaTub84D (alpha-Tubulin at 84D) [DRSC12623]: aggregation phenotype = knock-down lowers aggregates
Ssrp (Structure specific recognition protein) [DRSC04658]: aggregation phenotype = knock-down raises aggregates (active)
CG13623 [DRSC14625]: aggregation phenotype = knock-down lowers aggregates
Cdk2 (Cyclin-dependent kinase 2) [DRSC16921]: aggregation phenotype = knock-down raises aggregates
CG31111 [DRSC14649]: aggregation phenotype = knock-down lowers aggregates (active)
CG5861 [DRSC02907]: aggregation phenotype = knock-down lowers aggregates
RpLP1 (Ribosomal protein LP1) [DRSC22145]: aggregation phenotype = knock-down lowers aggregates
mRpS22 (mitochondrial ribosomal protein S22) [DRSC14488]: aggregation phenotype = knock-down lowers aggregates
bonsai [DRSC04453]: aggregation phenotype = knock-down lowers aggregates
eIF3e (eukaryotic translation initiation factor 3 subunit e) [DRSC11199]: aggregation phenotype = knock-down lowers aggregates
RpL12 (Ribosomal protein L12) [DRSC04344]: aggregation phenotype = knock-down lowers aggregates
TfIIEbeta (Transcription factor IIEbeta) [DRSC08701]: aggregation phenotype = knock-down lowers aggregates
CG14210 + Pstk + Tim9b [DRSC19566]: aggregation phenotype = knock-down lowers aggregates
RpL37-1 (Ribosomal protein L37-1) [DRSC21646]: aggregation phenotype = knock-down lowers aggregates
Pabp2 [DRSC07501]: aggregation phenotype = knock-down lowers aggregates
ND-23 (NADH dehydrogenase (ubiquinone) 23 kDa subunit) [DRSC15526]: aggregation phenotype = knock-down lowers aggregates
Klp67A (Kinesin-like protein at 67A) [DRSC11205]: aggregation phenotype = knock-down lowers aggregates
CG14082 [DRSC10086]: aggregation phenotype = knock-down raises aggregates
RpS12 (Ribosomal protein S12) [DRSC11270]: aggregation phenotype = knock-down lowers aggregates
Rrp45 [DRSC20198]: aggregation phenotype = knock-down lowers aggregates
Slu7 [DRSC14729]: aggregation phenotype = knock-down lowers aggregates (active)
Bub3 [DRSC14168]: aggregation phenotype = knock-down lowers aggregates (active)
CG30349 [DRSC06839]: aggregation phenotype = knock-down lowers aggregates (active)
Nup153 (Nucleoporin 153kD) [DRSC19904]: aggregation phenotype = knock-down lowers aggregates
pav (pavarotti) [DRSC08730]: aggregation phenotype = knock-down lowers aggregates
CG11997 [DRSC14464]: aggregation phenotype = knock-down raises aggregates
VhaSFD (Vacuolar H[+]-ATPase SFD subunit) [DRSC03471]: aggregation phenotype = knock-down raises aggregates
CG8435 [DRSC07179]: aggregation phenotype = knock-down lowers aggregates
CG18210 (retired record) [DRSC19089]: aggregation phenotype = knock-down lowers aggregates
TSG101 (Tumor susceptibility gene 101) [DRSC11098]: aggregation phenotype = knock-down lowers aggregates (active)
rept (reptin) [DRSC11388]: aggregation phenotype = knock-down lowers aggregates
CG1542 [DRSC15035]: aggregation phenotype = knock-down lowers aggregates
Ctns (Cystinosin) [DRSC15175]: aggregation phenotype = knock-down lowers aggregates
CG7044 [DRSC16180]: aggregation phenotype = knock-down raises aggregates
CSN4 (COP9 signalosome subunit 4) [DRSC07350]: aggregation phenotype = knock-down raises aggregates
r-l (rudimentary-like) [DRSC17042]: aggregation phenotype = knock-down lowers aggregates
r-l (rudimentary-like) [DRSC22784]: aggregation phenotype = knock-down lowers aggregates
deltaCOP (Coat Protein (coatomer) delta) [DRSC18760]: aggregation phenotype = knock-down lowers aggregates
Cpsf73 (Cleavage and polyadenylation specificity factor 73) [DRSC16291]: aggregation phenotype = knock-down lowers aggregates
Tpt + mkg-p [DRSC10777]: aggregation phenotype = knock-down lowers aggregates
xmas [DRSC21306]: aggregation phenotype = knock-down lowers aggregates
APC10 (Anaphase Promoting Complex subunit 10) [DRSC06071]: aggregation phenotype = knock-down lowers aggregates
mi (minus) [DRSC04498]: aggregation phenotype = knock-down raises aggregates
Tango4 (Transport and Golgi organization 4) [DRSC19786]: aggregation phenotype = knock-down lowers aggregates (active)
Rca1 (Regulator of cyclin A1) [DRSC03407]: aggregation phenotype = knock-down raises aggregates
mRpL21 (mitochondrial ribosomal protein L21) [DRSC11100]: aggregation phenotype = knock-down lowers aggregates
RpL26 (Ribosomal protein L26) [DRSC10726]: aggregation phenotype = knock-down lowers aggregates
RpL18A (Ribosomal protein L18A) [DRSC07538]: aggregation phenotype = knock-down lowers aggregates
Gapdh2 (Glyceraldehyde 3 phosphate dehydrogenase 2) [DRSC20246]: aggregation phenotype = knock-down lowers aggregates
SREBP (Sterol regulatory element binding protein) [DRSC11182]: aggregation phenotype = knock-down lowers aggregates
Vha44 (Vacuolar H[+] ATPase 44kD subunit) [DRSC07572]: aggregation phenotype = knock-down raises aggregates
IntS8 (Integrator 8) [DRSC07417]: aggregation phenotype = knock-down raises aggregates (active)

3 consecutive reagents from above:
RpL26 (Ribosomal protein L26) [DRSC10726]: aggregation phenotype = knock-down lowers aggregates
RpL18A (Ribosomal protein L18A) [DRSC07538]: aggregation phenotype = knock-down lowers aggregates
Gapdh2 (Glyceraldehyde 3 phosphate dehydrogenase 2) [DRSC20246]: aggregation phenotype = knock-down lowers aggregates
